Among the data in US11427615B2 (XDCEXPLORER (SHANGHAI) CO., LTD., priority 2017, dated 2022) are isolated mass values, retold here.

One data set can be described thus: general procedure: Fmoc solid-phase peptide synthesis; Rink Amide MBHA; HATU/HOAt/DIPEA (first residue); DIC/HOBt; HBTU/HOBt/DIPEA. The following applies: whole synthesis, scale 0.4 g resin (0.5 mmol/g), trifluoroacetate; acetate by salt conversion.
Consider “Ac-[D-Phe(2,4-DiCl)]-Hyp-Asn-Thr-Phe-azaPro-Leu-Arg(Me)-Trp-NH2”, for which the isolated mass is recorded as 5.9 mg.

Still in this data set, the particulars now being: whole synthesis, scale 1.0 g resin (0.5 mmol/g), trifluoroacetate; acetate by salt conversion.
“Ac-D-Tyr-Hyp-Asn-Thr-Phe-ACPO-Leu-Arg(Me)-Trp-NH2”: the isolated mass is 7.1 mg.

A further data set can be described thus: general procedure: Fmoc solid-phase peptide synthesis; Rink Amide MBHA resin (0.5 mmol/g); HATU/HOAt/DIPEA (first residue); DIC/HOBt; HBTU/HOBt/DIPEA. To be noted: whole synthesis, scale 0.26 g resin (0.5 mmol/g), trifluoroacetate; acetate by salt conversion.
For the substance “Ac-Lys(Palm-PEG8)-Gly-Gly-(D-Tyr)-Hyp-Asn-Thr-Phe-azaGly-Leu-Arg(Me)-Trp-NH2”, the isolated mass is 31 mg.

For “Ac-[D-Phe(2,4-diCl)]—(S-Pip)-Asn-Thr-azaPhe-Gly-Leu-Arg(Me)-Trp-NH2”, the isolated mass is listed as 45 mg.

For “Ac-[D-Phe(2,4-diCl)]—(S-Pip)-Asn-Thr-Phe-azaGly-Leu-Phe(4-Pyrazol)-Trp-NH2”, the isolated mass stood at 80 mg.

In the case of “Ac-(D-Tyr)-Hyp-Asn-Thr-Phe-azaNMeGly-Leu-Arg(Me)-Trp-NH2”, the isolated mass was found to be 11.5 mg.

On to “Palm-PEG8-Gly-Gly-(D-Tyr)-Hyp-Asn-Thr-Phe-azaGly-Leu-Arg(Me)-Trp-NH2”, for which the isolated mass is 20.4 mg.

“Ac-PEG4-(D-Tyr)-Hyp-Asn-Thr-Phe-azaGly-Leu-Arg(Me)-Trp-NH2”: the isolated mass is on record as 12.0 mg.

With “Palm-PEG8-Gly-Gly-Tyr-Asn-Trp-Asn-Ser-Phe-Gly-Leu-Arg-Phe-NH2”, the isolated mass is on record as 10.9 mg.
